From patent US8541598B2, “Biodegradable solvents for the chemical industry” (Dublin City University, priority 2007, dated 2013)
Where “and” joins values, the source holds several entries; their conditions need not be identical. Identical values can stand only once. Like-named read-outs stand apart in the source and are kept apart here.

Columns and labels:
[1] = system: wastewater microorganisms; conditions: after 28 days, literature, cited from earlier work
activated sludge = assay: CO2 Headspace test (ISO 14593), ultimate aerobic biodegradability; conditions: 40 mg L^-1

Structure (SMILES) | % Biodegradation (activated sludge; test time 0 days) | % Biodegradation (activated sludge; test time 7 days) | % Biodegradation (activated sludge; test time 15 days) | % Biodegradation (activated sludge; test time 21 days) | % Biodegradation (activated sludge; test time 28 days) | also measured
CCCCn1cc[n+](C)c1.F[B-](F)(F)F [BmimBF4] |  |  |  |  |  | biodegradation, Closed Bottle Test [1]: poorly biodegradable; biodegradation, Closed Bottle Test ([1]; listed as bmimBF4): negligible
CCCCn1cc[n+](C)c1.F[P-](F)(F)(F)(F)F [BmimPF6] |  |  |  |  |  | biodegradation, Closed Bottle Test [1]: poorly biodegradable; biodegradation, Closed Bottle Test ([1]; listed as bmimPF6): negligible
CCCCCOC(=O)Cn1cc[n+](C)c1.[Br-] [KG17, 3-Methyl-1-(pentoxycarbonylmethyl) imidazolium bromide] |  |  |  |  |  | biodegradation, Closed Bottle Test [1]: 32%
CCCCOC(=O)C[n+]1ccn(C)c1 [KG34, 3-methyl-1-(butoxycarbonylmethyl)imidazolium octylsulfate] | 0% | 45% | 54% | 56% | 59% | 
CCCCCOC(=O)C[n+]1ccn(C)c1 [KG35, 3-methyl-1-(pentoxycarbonylmethyl)imidazolium octylsulfate] | 0% | 52% | 59% | 60% |  | 
COCCOC(=O)C[n+]1ccn(C)c1 [KG36, 3-methyl-1-(2-[2-methoxy]ethoxycarbonylmethyl)imidazolium octylsulfate] | 0% | 54% | 59% | 59% | 59% | 
CCOCCOC(=O)C[n+]1ccn(C)c1 [KG37, 3-methyl-1-(2-[2-ethoxy]ethoxycarbonylmethyl)imidazolium octylsulfate] | 0% | 54% | 57% | 59% | 57% | 
CCCOCCOC(=O)C[n+]1ccn(C)c1 [KG38, 3-methyl-1-(2-[2-propoxy]ethoxycarbonylmethyl)imidazolium octylsulfate] | 0% | 51% | 58% | 61% |  | 
CCCCOCCOC(=O)C[n+]1ccn(C)c1 [KG39, 3-methyl-1-(2-[2-butoxy]ethoxycarbonylmethyl)imidazolium octylsulfate] | 0% | 53% | 59% | 60% |  | 
COCCOCCOC(=O)C[n+]1ccn(C)c1 [KG40, 3-methyl-1-(2-[2-methoxyethoxy]ethoxycarbonylmethyl)imidazolium octylsulfate] | 0% | 32% | 56% | 58% | 58% | 
CCOCCOCCOC(=O)C[n+]1ccn(C)c1 [KG41, 3-methyl-1-(2-[2-ethoxyethoxy]ethoxycarbonylmethyl)imidazolium octylsulfate] | 0% | 51% | 56% | 56% | 56% | 
CCCOCCOCCOC(=O)C[n+]1ccn(C)c1 [KG42, 3-methyl-1-(2-[2-propoxyethoxy]ethoxycarbonylmethyl)imidazolium octylsulfate] | 0% | 42% | 62% | 63% |  | 
CCCCOCCOCCOC(=O)C[n+]1ccn(C)c1 [KG43, 3-methyl-1-(2-[2-butoxyethoxy]ethoxycarbonylmethyl)imidazolium octylsulfate] | 0% | 56% | 61% | 64% |  | 
CCCCOCCOC(=O)C[n+]1ccn(C)c1C [KG44] | 0% | 53% | 54% | 62% |  | 
COCCOCCOC(=O)C[n+]1ccn(C)c1C [KG45, 2,3-dimethyl-1-(2-[2-methoxyethoxy]ethoxycarbonylmethyl)imidazolium octylsulfate] | 0% | 50% | 52% | 54% | 55% | 
Cn1cc[n+](CC(=O)N2CCCC2)c1 [KG403, 3-methyl-1-(pyrrolidinylcarbonylmethyl)imidazolium octylsulfate, reference compound] | 0% | 27% | 32% | 36% | 36% | 
Cc1n(C)cc[n+]1CC(=O)N1CCCC1 [KG404, 2,3-dimethyl-1-(pyrrolidinylcarbonylmethyl)imidazolium octylsulfate, reference compound] | 0% | 26% | 30% | 35% | 35% | 
COCCN(CCOC)C(=O)C[n+]1ccn(C)c1 [KG405] | 0% | 26% | 30% | 29% | 29% | 
CCCCCCCCCCCCOS(=O)(=O)[O-].[Na+] [SDS, Sodium n-dodecyl sulfate, reference compound] | 0% |  |  |  |  | % Biodegradation (activated sludge; test time 7 days, listed as SDS Ref, sulfate): 81%; % Biodegradation (activated sludge; test time 7 days, sulfate): 78% and 74%; % Biodegradation (activated sludge; test time 15 days, listed as SDS Ref, sulfate): 85%; % Biodegradation (activated sludge; test time 15 days, sulfate): 87% and 81%; % Biodegradation (activated sludge; test time 21 days, listed as SDS Ref, sulfate): 90%; % Biodegradation (activated sludge; test time 21 days, sulfate): 90% and 86%; % Biodegradation (activated sludge; test time 28 days, listed as SDS Ref, sulfate): 92%; % Biodegradation (activated sludge; test time 28 days, sulfate): 90% and 85%
